PubChem BioAssay AID1347426 (Functional Genomics Laboratory (NCATS/FGL), 2020)
Out of some 31,000 sequences screened, about 1,400 (4.5%) were called active.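 The calls were made as follows: active = median seed-adjusted z-score above 1 or below -1; inactive = the rest.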 Some of the results follow.

experiment: Novel Modifiers of Survival Motor Neuron (SMN) Protein: Gene Identification via Genome-wide siRNA Screen; settings: HEK293T SMN2-luciferase reporter, siRNA knockdown, 72 h; actives lie on both sides;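 also: luminescence tracks full-length SMN protein made from the SMN2 reporter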
How it was run: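 Genome-wide siRNA screen (10418 genes, 3 siRNAs each, 1 pmol per well) by reverse transfection in HEK293T cells stably carrying an SMN2-luciferase reporter; luminescence after 72 hours, normalized to negative-control siRNA, log10-transformed, MAD-scored.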

Sequence	median seed-adjusted z-score
AGCUGCCCAUGGUCCUGAATT against SPPL2B	inactive: 0.0324
GUUUAUAAAAGGUAUGCUATT against AP1S3	inactive: 0.153
GAACAACGGAAGCUACAGATT against COPG2	inactive: -0.564
CGAUAGCCUGAAUCAGUAUTT against CCBL2	inactive: 0.184
GGGUGGAUCUCGUGACUAUTT against NADSYN1	inactive: 0.217
GAAGGAGUUUGCACAGAAATT against DHDH	inactive: 0.522
GUGUCACAAUUUUAUCUCATT against XPO7	inactive: 0.546
CAGCGGCUCAGGUGAAGAATT against ACADS	inactive: 0.121
CCACUGCCGUGAUUCAUGATT against CYP2D6	inactive: -0.0488
CGGACAUUCUAAUGCAUAUTT against HAGH	inactive: 0.647
GCUCAACAUGGAUCGAGAATT against CDH6	inactive: 0
GAAUUUUGAUGUCAUACGATT against DTNB	inactive: -0.142
GCGUGACAGUGAUCCUGUATT against SLC27A5	inactive: 0.441
CCCUCUACCCUCAAUGUUATT against SOCS5	inactive: 0.312
ACAGCUACAUCAUUCUGUATT against GSN	inactive: -0.222
GAGAUUCUCAGAUACCUGATT against APOBEC3B	inactive: 0
GGACCAUCCAGCUUCUGGATT against GALE	inactive: -0.153
CAAUGUGCCUCAACUCGAATT against TPH2	inactive: 0.275
UGGAGUAACUAAAGAAGUUTT against AMY1A	inactive: 0.272
GCAAGUUUCGGACAGUACATT against TP63	inactive: -0.129
GCAUUUCGCUGUACAAGUUTT against IPO4	inactive: -0.0188
CGAAAACGAAAAUACUUCATT against NFIA	inactive: -0.268
GAAUAGGUAUUGGUGAAUUTT against EGFR	inactive: 0.263
CGAUAUACUGCACUAGAUATT against COPS2	inactive: 0.202
GAGGCAAGACGGUACUGGATT against PRMT6	inactive: -0.412
GCAGUGAAGUUUCUACAGATT against PEX14	inactive: 0.844
CCAUGACCUUCAUUGAUCATT against ALPK2	inactive: -0.154
CUUUGGAACAAAUACCGAATT against NXN	inactive: 0.175
CAUCACGCCUAGAGAAUUATT against RAI1	inactive: 0.113
GCAUCAGCUUAGAUCCAGATT against STX16	inactive: -0.569

2 entries from above, comma-delimited.
Sequence,median seed-adjusted z-score
GAAGGAGUUUGCACAGAAATT against DHDH,inactive: 0.522
GUGUCACAAUUUUAUCUCATT against XPO7,inactive: 0.546
